This note sets out measurements from patent US20230165835A1, “METHODS OF TREATING ACUTE LUNG INJURY USING EBSELEN” (SOUND PHARMACEUTICALS INC., priority 2020, published 2023).

What is called CC50 is the concentration that lowers cell viability or growth by half.

SMILES strings stand for the structures.

The data set in a line: Cytotoxicity / cell viability in Vero E6 cells. The class given is cell-based. The conditions noted are these: African green monkey.

As to `CCC(CC)COC(=O)[C@H](C)N[P@](=O)(OC[C@H]1O[C@@](C#N)(c2ccc3c(N)ncnn23)[C@H](O)[C@@H]1O)Oc1ccccc1` [remdesivir], the CC50 was > 10 µM.
